## Screening data, single-dose tests

The chains behind the UniProt entries cited, without tags or fusion partners. Residues count along the entry.
UniProt P9WFT3, whole entry: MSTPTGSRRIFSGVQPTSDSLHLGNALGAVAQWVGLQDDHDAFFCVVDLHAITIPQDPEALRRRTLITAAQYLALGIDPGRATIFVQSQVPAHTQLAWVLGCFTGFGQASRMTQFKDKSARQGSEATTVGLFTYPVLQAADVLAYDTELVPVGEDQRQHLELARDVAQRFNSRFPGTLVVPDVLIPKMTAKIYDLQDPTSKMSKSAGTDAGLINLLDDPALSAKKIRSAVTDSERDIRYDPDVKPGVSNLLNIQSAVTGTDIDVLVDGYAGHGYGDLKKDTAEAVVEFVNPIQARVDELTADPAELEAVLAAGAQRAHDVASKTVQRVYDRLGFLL
UniProt Q4DA54, 1-478: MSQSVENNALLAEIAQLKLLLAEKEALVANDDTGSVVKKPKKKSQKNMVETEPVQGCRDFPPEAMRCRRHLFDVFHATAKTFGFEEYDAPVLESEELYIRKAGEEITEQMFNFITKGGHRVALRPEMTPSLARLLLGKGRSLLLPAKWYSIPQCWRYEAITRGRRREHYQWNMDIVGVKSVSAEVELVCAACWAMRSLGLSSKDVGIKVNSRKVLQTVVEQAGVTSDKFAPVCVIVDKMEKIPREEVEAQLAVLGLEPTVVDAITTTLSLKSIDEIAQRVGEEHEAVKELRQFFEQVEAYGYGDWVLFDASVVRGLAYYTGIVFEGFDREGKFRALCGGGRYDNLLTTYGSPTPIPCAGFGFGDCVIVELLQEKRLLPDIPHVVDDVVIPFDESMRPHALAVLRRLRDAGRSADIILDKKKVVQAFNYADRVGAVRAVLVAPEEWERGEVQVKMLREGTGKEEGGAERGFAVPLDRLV
UniProt Q8IDJ8, 1-583: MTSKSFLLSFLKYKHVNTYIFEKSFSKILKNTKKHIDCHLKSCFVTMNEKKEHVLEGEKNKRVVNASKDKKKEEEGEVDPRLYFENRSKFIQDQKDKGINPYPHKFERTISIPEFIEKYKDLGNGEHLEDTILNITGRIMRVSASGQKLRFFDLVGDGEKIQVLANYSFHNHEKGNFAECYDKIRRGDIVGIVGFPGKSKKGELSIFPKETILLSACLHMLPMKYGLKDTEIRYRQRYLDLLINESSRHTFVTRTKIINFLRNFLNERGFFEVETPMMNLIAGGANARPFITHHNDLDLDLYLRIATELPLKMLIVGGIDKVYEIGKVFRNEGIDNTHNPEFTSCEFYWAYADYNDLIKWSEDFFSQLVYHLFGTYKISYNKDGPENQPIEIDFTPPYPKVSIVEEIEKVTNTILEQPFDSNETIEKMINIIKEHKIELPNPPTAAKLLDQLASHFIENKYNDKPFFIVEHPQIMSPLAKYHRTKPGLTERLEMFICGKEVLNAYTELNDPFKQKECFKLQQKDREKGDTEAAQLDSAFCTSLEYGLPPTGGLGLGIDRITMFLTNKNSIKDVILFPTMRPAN
UniProt P9WNZ1, whole entry: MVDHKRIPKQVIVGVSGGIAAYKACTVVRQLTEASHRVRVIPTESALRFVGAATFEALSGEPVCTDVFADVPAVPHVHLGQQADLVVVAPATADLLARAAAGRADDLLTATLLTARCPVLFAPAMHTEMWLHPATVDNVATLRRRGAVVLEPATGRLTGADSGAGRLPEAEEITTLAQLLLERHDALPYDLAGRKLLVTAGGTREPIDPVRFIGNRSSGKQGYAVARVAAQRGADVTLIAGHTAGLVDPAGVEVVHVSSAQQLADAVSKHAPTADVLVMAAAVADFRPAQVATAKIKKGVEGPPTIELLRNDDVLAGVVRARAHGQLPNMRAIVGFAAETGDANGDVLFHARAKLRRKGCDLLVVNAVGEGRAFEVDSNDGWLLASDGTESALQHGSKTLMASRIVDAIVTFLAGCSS
UniProt I6X8D2, whole entry: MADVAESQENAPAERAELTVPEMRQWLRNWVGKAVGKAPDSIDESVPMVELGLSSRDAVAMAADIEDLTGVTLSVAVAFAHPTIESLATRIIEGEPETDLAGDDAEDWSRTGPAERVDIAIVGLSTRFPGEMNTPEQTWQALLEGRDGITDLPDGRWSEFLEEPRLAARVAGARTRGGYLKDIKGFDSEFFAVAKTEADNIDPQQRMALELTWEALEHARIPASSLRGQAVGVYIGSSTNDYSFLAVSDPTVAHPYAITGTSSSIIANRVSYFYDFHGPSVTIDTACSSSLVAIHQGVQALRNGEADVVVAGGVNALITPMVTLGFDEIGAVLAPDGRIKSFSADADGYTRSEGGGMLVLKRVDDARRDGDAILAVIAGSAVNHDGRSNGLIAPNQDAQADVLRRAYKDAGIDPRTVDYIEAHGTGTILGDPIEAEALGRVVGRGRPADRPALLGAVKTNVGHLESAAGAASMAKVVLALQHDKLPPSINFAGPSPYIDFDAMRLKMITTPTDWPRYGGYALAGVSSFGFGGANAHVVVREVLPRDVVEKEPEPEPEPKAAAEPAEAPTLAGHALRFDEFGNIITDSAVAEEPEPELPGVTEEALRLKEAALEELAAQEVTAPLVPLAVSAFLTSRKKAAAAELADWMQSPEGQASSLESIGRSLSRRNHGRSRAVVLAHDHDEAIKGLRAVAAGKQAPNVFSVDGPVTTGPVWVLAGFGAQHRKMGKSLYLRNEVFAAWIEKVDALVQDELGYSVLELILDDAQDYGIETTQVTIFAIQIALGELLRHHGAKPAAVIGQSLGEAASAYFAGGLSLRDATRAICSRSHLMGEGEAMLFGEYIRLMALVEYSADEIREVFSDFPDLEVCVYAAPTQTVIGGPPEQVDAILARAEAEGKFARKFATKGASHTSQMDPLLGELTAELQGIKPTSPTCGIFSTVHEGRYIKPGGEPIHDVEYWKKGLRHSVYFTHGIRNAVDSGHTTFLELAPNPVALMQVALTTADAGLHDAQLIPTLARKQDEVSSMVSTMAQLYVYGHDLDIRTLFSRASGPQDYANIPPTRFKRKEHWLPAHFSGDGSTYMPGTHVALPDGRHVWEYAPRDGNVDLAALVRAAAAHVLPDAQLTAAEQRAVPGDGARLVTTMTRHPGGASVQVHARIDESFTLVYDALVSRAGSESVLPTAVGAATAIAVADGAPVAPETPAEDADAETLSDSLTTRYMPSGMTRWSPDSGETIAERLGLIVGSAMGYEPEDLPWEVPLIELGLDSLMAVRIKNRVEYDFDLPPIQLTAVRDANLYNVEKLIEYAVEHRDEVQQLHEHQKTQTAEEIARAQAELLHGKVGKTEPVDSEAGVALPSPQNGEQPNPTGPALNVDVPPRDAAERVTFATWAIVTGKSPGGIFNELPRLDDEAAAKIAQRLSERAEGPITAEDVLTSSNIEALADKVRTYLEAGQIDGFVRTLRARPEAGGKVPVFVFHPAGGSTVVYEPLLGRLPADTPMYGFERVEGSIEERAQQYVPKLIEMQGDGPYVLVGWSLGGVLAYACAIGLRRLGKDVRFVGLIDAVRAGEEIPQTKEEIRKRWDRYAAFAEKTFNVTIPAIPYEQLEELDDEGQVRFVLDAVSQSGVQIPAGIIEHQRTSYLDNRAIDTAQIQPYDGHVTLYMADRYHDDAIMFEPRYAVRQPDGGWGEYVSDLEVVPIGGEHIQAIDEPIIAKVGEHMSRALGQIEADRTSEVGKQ

From ChEMBL document CHEMBL3988442, “University of Dundee, Small-Polar-MMV Screening Library” (2021).

A: 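Tryptophan-tRNA ligase, Mycobacterium tuberculosis (UniProt P9WFT3). Enzyme assay of tryptophanyl-tRNA synthetase; the read-out is not stated. Concentration: 10 µM. Higher most likely means stronger inhibition; the record gives no direction and few retests gave an IC50. About 65,000 compounds were tested under these conditions; 0.098% (about 64) showed 50% or more at least once.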
B: 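Histidine-tRNA ligase, Trypanosoma cruzi CL Brener (UniProt Q4DA54). Enzyme assay of histidyl-tRNA synthetase; the read-out is not stated. Compounds at 30 µM. The record gives no direction; compounds that gave an IC50 in retests scored well above the rest, so higher reads as stronger inhibition. Of about 69,000 compounds tested this way, about 31 (0.045%) reached 50% or more in at least one test.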
C: 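Enzyme assay of the cytosolic lysyl-tRNA synthetase in 384-well plates, read by luminescence. Target: Lysine-tRNA ligase, Plasmodium falciparum 3D7 (UniProt Q8IDJ8). Tested at 30 µM. Direction is inferred from only a few compounds that gave an IC50; most scored high, so higher reads as stronger inhibition. About 69,000 compounds were tested under these conditions; 0.071% (about 49) showed 50% or more at least once.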
D: 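Coenzyme A biosynthesis protein CoaBC, Mycobacterium tuberculosis (UniProt P9WNZ1). Enzyme assay of CoaBC with a phosphate dye (Biomol Green) read at 650 nm. Compounds at 30 µM. Higher reads as stronger inhibition, judged from the few compounds that gave an IC50. Most strong results did not repeat in a second test. About 67,000 compounds were tested under these conditions; 0.06% (about 40) showed 50% or more at least once.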
E: 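Enzyme assay of the thioesterase domain of polyketide synthase 13; the read-out is not stated. Target: Polyketide synthase Pks13, Mycobacterium tuberculosis (UniProt I6X8D2). Compounds at 30 µM. Higher reads as stronger inhibition (inferred from which compounds were picked for retests). Size under these conditions: about 67,000 compounds, about 300 of them at 50% or above in at least one test.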
F: 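Cell assay of Leishmania donovani living inside macrophages; the read-out is not stated. Concentration: 30 µM. Higher reads as stronger inhibition (inferred: compounds with an IC50 in retests scored well above the rest). About 69,000 compounds were tested under these conditions; 1.5% (about 1,000) showed 50% or more at least once.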

Values are the deposited “Percent Effect”, in %.
How 0% and 100% were set is not recorded. Most values in the screen are low, and negative values occur.
This is an unselected part of the compounds tested.
Two or more numbers in one place are separate tests of the same structure; such repeats can differ widely.
A dash means the value is not listed here; it may have been measured.

| structure | A | B | C | D | E | F |
|---|---|---|---|---|---|---|
| `Cc1cnn(CCNCc2ccc(OCc3ccncc3)cc2)c1` | -5.24% | 15.77% | 4.164% | 9.033% | 4.812% | 14.29% |
| `Cc1nnc(NC(=O)CN2CCc3c(nc(C4CC4)n3C)C2)s1` | -3.894% | 3.458% | -0.6608% | -1.364% | -10.52% | -54.06% |
| `CCc1ccc(CN2Cc3nccn3CC(CN3CCOCC3)C2)o1.O=C(O)C(F)(F)F.O=C(O)C(F)(F)F.O=C(O)C(F)(F)F` (stereo not shown) | - | - | - | - | - | 20.68% |
| `COCCN1CCN(Cc2ccc(F)c(C)c2)[C@H]2CS(=O)(=O)C[C@H]21` | 2.256% | 2.479% | 0.4914% | 12.72% | - | - |
| `O=C(NCC1CCOC1)c1csc(Cc2ccccc2)n1` (stereo not shown) | 0.7273% | 1.935% | 4.059% | 0.9662% | -30.67% | 10.32% |
| `O=C(O)C(F)(F)F.[H][C@]12CN(CC)C[C@@]1(C(=O)O)CCCN(c1cc(OC)ncn1)C2` | - | - | - | - | - | -1.285% and -9.195% |
| `CC(=O)NCc1ccc(-n2ccnc2C)nc1` | -1.149% | 1.734% | 3.483% | -1.653% | -26.2% | -1.075% |
| `CCSc1ccccc1C(=O)NCCn1nc(-n2cncn2)ccc1=O` | 1.708% | 6% | -4.077% | -0.7264% | -16.27% | -29% |
| `O=C(NCCc1ccccn1)N1CCOC(c2ccccc2Cl)C1` (stereo not shown) | -4.806% | 4.972% | 4.629% | -2.42% | -39.88% | -1.342% |
| `O=C1NC[C@@]2(C(=O)O)CN(Cc3cccc(Oc4ccccc4)c3)C[C@@H]12` | 1.615% | 2.174% | 3.506% | 0.6048% | -19.18% | - |
| `CN(C(=O)c1ccco1)C1CCC(NC(=O)OC(C)(C)C)CC1` (stereo not shown) | -1.053% | 0% | 3.888% | 0.9756% | 2.096% | -3.076% |
| `COc1c(CNCCC(=O)Nc2cccc(C)n2)c(C(C)C)nn1C` | 6.058% | 6.806% | 6.028% | -1.499% | -17.66% | -29.96% |
| `COCCNc1cc(C(=O)N2CCOCC2)nc(C)n1` | 2.151% | -1.754% | 0.427% | 1.033% | 4.086% | 2.377% |
| `C1CCCN(C2CCCN(Cc3noc(C4CC4)n3)C2)CC1` (stereo not shown) | -5.508% | 22.97% | 1.207% | 6.868% | 9.34% | 39.54% |
| `CS(=O)(=O)N1CCN2C(=O)N(C3CCCCC3)C[C@H]2C1` | 5.111% | -3.483% | -2.353% | -8.841% | 3.478% | - |
| `O=C(CN1CCCCCC1)N1CCc2nnc(C3CCCNC3)n2CC1` (stereo not shown) | 13.74% | 1.916% | -0.9882% | -0.9709% | -29.07% | -16.25% |
| `O=C(O)C(F)(F)F.O=C(O)C(F)(F)F.[H][C@@]12COC[C@@H](CC(=O)NCC3CC3)[C@]1([H])CN(Cc1cccnc1)C2` | - | - | - | - | - | 18.63% |
| `Cc1ccc(NC2CCN(C(=O)CCCc3cccs3)CC2)nn1` | -3.742% | 3.468% | 0.8036% | 4.725% | -16.82% | 20.61% |
| `O=C(O)c1ccc(S(=O)(=O)Nc2ccccc2CC(F)(F)F)c(F)c1` | -4.19% | 2.809% | 7.78% | -2.213% | -18.37% | -15.44% |
| `Cc1cc(C2CCCN(C(=O)c3ccc(C)[nH]c3=O)C2)n[nH]1` (stereo not shown) | -2.269% | 3.008% | 3.925% | 2.254% | -6.119% | 2.77% |
| `CC(C)N(C)Cc1cn2c(n1)CN(C(=O)c1ccc[nH]1)CC2` | -2.033% | 2.941% | -2.194% | 0.25% | -4.853% | 13.65% |
| `CCCS(=O)(=O)N1CCCC(CCC(=O)N(C)CCc2ccccn2)C1` (stereo not shown) | -3.769% | 4% | 1.213% | 11.68% | -14.69% | 11.67% |
| `COc1ccc(CN(C)Cc2nc3c(cnn3C)c(=O)[nH]2)cc1OC` | -1.657% | -1.128% | 1.936% | -1.567% | -12.27% | 34.8% |
| `Cc1cc(C(=O)N2CCc3nc(C4CCCCN4)ncc3C2)cs1` (stereo not shown) | -2.377% | 7.463% | 2.112% | 3.163% | 8.393% | - |
| `O=C(NCCCO)c1cc(-c2cc[nH]n2)n2ccccc12` | 5.013% | -23.93% | 3.659% | 4.225% | 48.62% | - |
| `CN(C)CC1(O)CCCN(C(=O)Cn2nc3ccccc3n2)CC1` (stereo not shown) | -1.069% | 7.407% | 1.524% | 11.66% | -5.647% | 4.464% |
| `O=C(c1ccncc1)N1CC[C@@H]2[C@@H](CC1)OCCN2c1cccnc1` | -3.312% | 5.376% | 3.307% | 6.131% | -34.59% | - |
| `Cl.Nc1ccc(-c2cnc(C3CCCN3)cn2)cn1` (stereo not shown) | - | - | - | - | - | 24.24% |
| `COCCNC(=O)c1cc(COc2cncc(Cl)c2)on1` | -2.034% | 6.358% | 3.621% | -7.851% | -27.02% | 11% |
| `O=C(c1cc[nH]n1)N1CCc2ccc(S(=O)(=O)N3CCOCC3)cc2C1` | 0.8811% | 11% | -3.263% | -5.455% | -5.841% | 52.38% |
| `O=C(Nc1cccnc1N1CCSCC1)c1cc2c(s1)CCCCC2` | -4.078% | 8.287% | 1.572% | 9.709% | -27.85% | 16.97% |
| `CSc1nccn1-c1cccc(C(=O)NCCC(=O)NC(C)C)c1` | -3.888% | 8.092% | 1.276% | 4.725% | -16.85% | 15.16% |
| `CC(C)c1nnc2n1CCN(CC(=O)Nc1nncs1)C2` | -3.362% | 0.3774% | 7.754% | 10.51% | -16.19% | -7.317% |
| `NC1(C(=O)N2CCC(c3cc(-c4ccccc4Cl)n[nH]3)CC2)CCC1` | 3.622% | 0% | 2.671% | 2.813% | 1.122% | -75.86% |
| `COCC(=O)N1CC[C@@H]2O[C@H](COCc3ccncc3)CC[C@@H]21` | 0.7846% | 7.182% | 1.711% | 9.769% | -12.93% | - |
| `CCn1ncnc1C(C)Nc1cc(C)c2ccc(SC)cc2n1` (stereo not shown) | 1.358% | 1.299% | -2.018% | 6.098% | -28.96% | 28.84% |
| `O=C(c1ccc(N2CCCC2)nn1)N1CCCc2ccc(F)cc21` | -1.125% | 4.04% | 4.232% | 5.186% | -14.87% | -5.61% |
| `Cc1ccc(NC2CCN(C(=O)c3nccc4ccccc34)CC2)nn1` | -5.84% | 4.611% | -0.3515% | 7.045% | -10.4% | 21.47% |
| `NC(=O)C(Cc1ccccc1)NS(=O)(=O)Cc1ccccc1F` (stereo not shown) | -0.06915% | 8.434% | 2.497% | 3.96% | -27.3% | 25.84% |
| `Cc1cc2c(=O)n3c(nc2s1)CCN(C(=O)c1ccnn1C)CC3` | - | 4.494% | 0.3119% | -5.328% | -1.199% | 13.34% |
| `Fc1ccc(-c2nc(CN3CCCC3Cn3cncn3)co2)cc1F` (stereo not shown) | 48.28% | 1.729% | -3.304% | -13.18% | -20.24% | -34.53% |
| `COc1cc(N2CCOC(c3ccc(F)cc3)C2)ncn1` (stereo not shown) | 0.4881% | 4.721% | 2.432% | 3.23% | -7.397% | 21.15% |
| `Cc1cc(N2CCCC(N(C)C)C2)n2nc(C)cc2n1` (stereo not shown) | 1.235% | 6.667% | -2.308% | 6.569% | -28.45% | 8.016% |
| `Cc1nc2cc(-c3nccn3C)nn2c(N2CCCC(CO)C2)c1C` (stereo not shown) | -0.5277% | 6.061% | 0.934% | -1.48% | - | 20.78% |
| `CC(C)C(c1cccnc1)N(C)C(=O)Cc1c(F)cccc1F` (stereo not shown) | -3.945% | 6.667% | -0.8246% | -0.4202% | -11.6% | 39.34% |
| `CCO[C@@H]1CO[C@@]2(CCCN(C(=O)COc3ccccc3OC)C2)C1` | 3.859% | 2.174% | 4.874% | 3.169% | -16.38% | 10.86% |
| `CCN(C(=O)CN1CCN(CC(C)O)CC1)C1=CCCCC1` (stereo not shown) | -5.877% | 3.743% | 3.991% | -4.348% | -6.554% | 39.49% |
| `CCOc1ccc(OC2CCCN(c3cnn(C)c3)C2=O)cc1` (stereo not shown) | 5.202% | -7.216% | -2.602% | 13.41% | 4.913% | -7.644% |
| `CCc1[nH]c(C2(N)CCCCC2)nc(=O)c1C` | 2.431% | 4.867% | 8.311% | 7.944% | -25.71% | 9.554% |
| `CCSCCn1cc(-c2ncc[nH]2)nn1` | 5.447% | 5.455% | 3.42% | 4.136% | -4.775% | 12.94% |
| `CS(=O)(=O)CC(=O)N1C[C@@H]2CN(Cc3ccoc3)CCO[C@@H]2C1` | -2.654% | 3.061% | 2.073% | 6.799% | 7.386% | - |
| `NC(=O)NC(=O)CCn1ccc(-c2ccccc2)n1` | 10.08% | 6.863% | -4.237% | -5.691% | - | -10.69% |
| `CCC[C@@H]1CN(Cc2ccccc2SC)C[C@H]1NC(C)=O` | 1.782% | 5.288% | 3.366% | 2.163% | -2.276% | 2.443% |